Experimental data taken from patent publication EP1818052A1 (Acacia Pharma Limited, priority 2004, dated 2006).
Where “and” joins values, the source holds several entries; their conditions need not be identical. Identical values can stand only once.

Key:
[1] = system: tibialis muscles previously injected with bupivacain; assay: Muscular damage by bupivacain: tibialis muscle weight; assay type: in vivo, rats; conditions: for weight of tibialis muscles: bupivacain (0.5%) damage, formoterol 0.3 mg/kg bw s.c. daily
Excerpt: Muscular regeneration is a process that implies satellite cells activation, muscle precursors cells that lie adjacent to the skeletal muscle fibers. The muscle was damaged by injecting bupivacain intramuscularly (0.5%). This compound, after muscle damage, stimulates muscular regeneration.
Muscle weights are expressed as mg/100 g of initial body weight. Results are mean ± SEM for the number of animals indicated in parentheses.

[2] = system: Pax-7 and myogenin; assay: Real time PCR of satellite cell activation markers in tibialis muscle after bupivacain damage; assay type: in vivo, rats; conditions: formoterol 0.3 mg/kg bw
Excerpt: PAx-7 and myogenin. Results are mean ± SEM for the number of animals indicated in parentheses.

[3] = system: different proteolytic systems in gastrocnemius muscles; conditions: rat, in vivo
[4] = system: uncoupling proteins (UCP2 and UCP3); conditions: rat, in vivo
[5] = system: mice bearing Lewis lung carcinoma; conditions: mouse, in vivo
[6] = system: different proteolytic systems in gastrocnemius muscles; conditions: mouse, in vivo

Which results are given for COc1ccc(C[C@H](C)NC[C@@H](O)c2ccc(O)c(NC=O)c2)cc1 (racemic) [formoterol]?
weight of tibialis muscles ([1]; 7 days of treatment (C+B+Fd7)): 297 ± 13 † mg/100 g of initial body weight; weight of tibialis muscles ([1]; 14 days of treatment (C+B+Fd14)): 304 ± 10 mg/100 g of initial body weight; recovery of the muscle weight ([1]; compared with bupivacain alone, result in words): higher recovery; Myogenin gene expression ([2]; 7 days of treatment): 131 ± 49; Pax-7 gene expression ([2]; 7 days of treatment): 147 ± 10; Myogenin gene expression ([2]; 14 days of treatment): 190 ± 58; Pax-7 gene expression ([2]; 14 days of treatment): 203 ± 4; lysosomal cathepsin B expression [3]: decreased; UCP2 mRNA [4]: 106 ± 7 and 212 ± 31; adipose tissues weight: brown (interscapular) [5]: 249 ± 6 mg/100 g of initial body weight and 153 ± 13 † *** mg/100 g of initial body weight; brown adipose tissue mass [5]: increase; carcass weight [5]: 87 ± 1 g/100 g of initial body weight and 73 ± 2 g/100 g of initial body weight; increase in gastrocnemius weight [5]: 19%; increase in soleus weight [5]: 28%; increase in tibialis weight [5]: 13%; muscle weight: EDL [5]: 42 ± 2 mg/100 g of initial body weight and 40 ± 2 mg/100 g of initial body weight; muscle weight: gastrocnemius [5]: 669 ± 13 mg/100 g of initial body weight and 548 ± 13 †† *** mg/100 g of initial body weight; muscle weight: heart [5]: 462 ± 31 mg/100 g of initial body weight and 496 ± 40 mg/100 g of initial body weight; muscle weight: soleus [5]: 36 ± 1 mg/100 g of initial body weight and 36 ± 2 mg/100 g of initial body weight; muscle weight: tibialis [5]: 217 ± 4 mg/100 g of initial body weight and 169 ± 3 †† *** mg/100 g of initial body weight; protective effect on cardiac muscle weight [5]: 24%; protective effect on gastrocnemius weight [5]: 11%; protective effect on soleus weight [5]: 56%; protective effect on tibialis weight [5]: 11%; tumor weight [5]: 4.58 ± 0.3 g; weight of the solid tumor [5]: did not alter; white adipose tissue mass [5]: did not alter; slight increase in cathepsin B mRNA content by tumor [6]: not reverted
